The values that follow come from patent publication US20180265582A1.

The assay has as its target modified human PD-1 protein M1 (human). Nature of the assay: flow cytometry, transiently transfected HeLa cells [M1].

These are yes or no findings as the source states them, for the method shown. Binding calls can cover weak binding; strength is not graded here.

B1: 137F2 (antibody, V domains shown)
VH: QVQLQQPGAELVRPGTSVKMSCKAAGYTFTNYWIGWIKQRPGHGLEWIGDIYPGGGYTNYNEKFKGKATLTADTSSSTAYMQVSSLTSEDTGIYYCARGYDFVLDRWGQGTSVTVSS
VL: DIVMSQSPSSLAVSTGEKVTMTCKSSQSLFNSETQKNYLAWYQQKPGQPPKLLIFWASTRESGVPDRFLGSGSGTDFTLTISSVQAEDLAVYYCKQSYTLRTFGGGTKLEIK
With B1, the binding result was “binds”.
